Test [1] deals with ezrin (human (endogenous in A549)) (UniProt P15311). The experiment in a line: co-IP; whole cell lysates of control A549 cells not exposed to LPS; anti-ezrin antibody overnight, protein A/G agarose beads 6 h, blots with anti-MyD88, anti-IRAK-1.
For test [2] the target is unchanged. The experiment in a line: co-IP; whole cell lysates of A549 cells challenged with LPS (1 µg/mL), for Syk also control cells without LPS; with or without ROCK1 siRNA or ezrin siRNA; anti-ezrin antibody overnight, protein A/G agarose beads 6 h, blots with anti-Syk, anti-MyD88, anti-IRAK-1.

Chains of the proteins cited; added tags and fusions are not shown.
UniProt P15311: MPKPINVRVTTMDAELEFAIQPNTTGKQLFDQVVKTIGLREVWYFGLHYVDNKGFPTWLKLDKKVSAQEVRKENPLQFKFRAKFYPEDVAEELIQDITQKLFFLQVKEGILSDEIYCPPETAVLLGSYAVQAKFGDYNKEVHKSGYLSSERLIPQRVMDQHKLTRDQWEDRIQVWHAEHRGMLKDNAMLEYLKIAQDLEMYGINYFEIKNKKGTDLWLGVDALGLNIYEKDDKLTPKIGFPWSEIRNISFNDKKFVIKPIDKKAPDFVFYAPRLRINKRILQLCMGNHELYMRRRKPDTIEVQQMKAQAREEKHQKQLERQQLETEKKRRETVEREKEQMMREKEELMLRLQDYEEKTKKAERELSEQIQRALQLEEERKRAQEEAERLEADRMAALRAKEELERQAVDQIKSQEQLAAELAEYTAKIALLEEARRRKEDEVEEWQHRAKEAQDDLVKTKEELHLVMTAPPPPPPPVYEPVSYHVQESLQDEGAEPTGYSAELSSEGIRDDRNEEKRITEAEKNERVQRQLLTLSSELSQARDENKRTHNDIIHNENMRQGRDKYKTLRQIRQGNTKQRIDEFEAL
UniProt Q99836: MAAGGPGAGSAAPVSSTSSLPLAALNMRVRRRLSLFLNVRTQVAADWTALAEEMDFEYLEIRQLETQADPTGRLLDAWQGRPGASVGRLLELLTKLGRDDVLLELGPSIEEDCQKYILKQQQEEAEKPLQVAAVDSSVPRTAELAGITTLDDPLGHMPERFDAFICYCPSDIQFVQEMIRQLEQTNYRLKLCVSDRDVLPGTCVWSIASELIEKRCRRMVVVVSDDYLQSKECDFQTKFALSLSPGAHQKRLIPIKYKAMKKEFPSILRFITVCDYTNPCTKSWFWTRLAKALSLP
UniProt P51617: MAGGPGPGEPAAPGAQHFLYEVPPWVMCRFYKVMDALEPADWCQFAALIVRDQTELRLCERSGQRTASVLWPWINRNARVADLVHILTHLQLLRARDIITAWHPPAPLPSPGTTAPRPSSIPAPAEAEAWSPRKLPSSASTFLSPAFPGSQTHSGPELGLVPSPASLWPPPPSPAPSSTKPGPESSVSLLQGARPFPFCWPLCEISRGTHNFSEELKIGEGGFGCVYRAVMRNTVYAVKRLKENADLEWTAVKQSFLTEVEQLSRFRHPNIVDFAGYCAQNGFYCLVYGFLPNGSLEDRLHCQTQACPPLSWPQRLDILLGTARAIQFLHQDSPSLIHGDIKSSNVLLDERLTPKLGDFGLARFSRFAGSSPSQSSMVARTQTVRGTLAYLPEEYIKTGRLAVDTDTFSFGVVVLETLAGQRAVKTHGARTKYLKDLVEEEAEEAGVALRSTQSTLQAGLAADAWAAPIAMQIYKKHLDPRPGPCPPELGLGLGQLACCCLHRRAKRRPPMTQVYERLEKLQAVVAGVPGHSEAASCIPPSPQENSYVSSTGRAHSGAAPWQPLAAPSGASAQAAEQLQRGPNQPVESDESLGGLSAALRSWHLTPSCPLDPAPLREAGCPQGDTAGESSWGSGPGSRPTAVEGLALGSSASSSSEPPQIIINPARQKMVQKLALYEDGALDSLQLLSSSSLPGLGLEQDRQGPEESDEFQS

These are yes or no findings as the source states them, for the method shown. Binding seen in cells or lysates may run through a third protein. Some entries that bind do so weakly or less than the wild type.

For “myeloid differentiation factor 88 (from UniProt Q99836 1-296)”, the binding entry was “no binding (condition: cells without LPS stimulation)” in test [1] and “binds” in test [2].

Turning to “IL-1R-associated kinase 1 (from UniProt P51617 1-712)”, the binding result in test [1] is recorded as “no binding (condition: cells without LPS stimulation)”; in test [2], “binds”.

(Values after publication PMC9097379.)
